Out of some 52,000 sequences screened, about 210 (0.4%) were called active.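 The calls were made as follows: active = gene whose silencing raises cell survival under the drug, median off-target-corrected z-score across its silencing RNAs 2 or more; inactive = the rest.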 The list shows a part of the results.
Assay: Resistance to Poly (ADP-Ribose) Polymerase inhibitor: Gene Identification via Genome-wide siRNA Screen
Details: mouse BRCA2 R2336H ES cells, olaparib, CellTiter-Glo viability; hits give high values
How it was run: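 Genome-wide siRNA screen (3 siRNAs/gene, 20 nM) in mouse ES cells carrying hypomorphic BRCA2 R2336H; olaparib 500 nM added 48 h post-transfection, CellTiter-Glo viability 72 h later. Normalized to plate-median negative control; MAD z-scores, gene median, seed-adjusted.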

Q: For GGAUAUUUGUCAAUGGACGTT against Glrx2, which z-score is on record?
A: inactive: -1.23

Q: With “GGUGCCUUGGGAAAAAGGATT against 2610511O17Rik” as the sequence, how does the z-score read?
A: inactive: -1.13

Q: For “GCCAGUUAUGAGCAACACCTT against D11Ertd18e”, which z-score is on record?
A: inactive: 2.17

Q: Which z-score does the source give for GGACAAAGCUAUGUCUUAATT against Treh here?
A: inactive: -1.1

Q: Which z-score does the source give for GGAUCUUUUCCAAAGAAAUTT against Dusp10 here?
A: inactive: 0.204

Q: With CUUGUGGGUCUAUGGACGGTT against Olfr1348 as the sequence, how does the z-score read?
A: inactive: 1.45

Q: Which z-score does the source give for “GGGAAAUUAAAUCUGUUCATT against 4931419K03Rik” here?
A: inactive: -1.24

Q: Which z-score does the source give for GGACAAAGACAAAAAGGAUTT against Pole3 here?
A: inactive: -2.17

Q: With GGCAAUUGUCCACAAACUCTT against Smyd5 as the sequence, how does the z-score read?
A: inactive: 0.256

Q: Which z-score does the source give for GGAAUCAGAGAAAUUGUAATT against Ctsq here?
A: inactive: 0.0545

Q: With GGAAAGAAACCGUAUAAAUTT against Zfp93 as the sequence, how does the z-score read?
A: inactive: 0.868

Q: For GGCAUGAUAAGCUUCGAUGTT against Pmm1, which z-score is on record?
A: inactive: 1.46

Q: For CGGCAAACUCAAGAAGCAGTT against BC027663, which z-score is on record?
A: inactive: -2.19

Q: With GGUUACUUUGGGAAAGUUGTT against Rpl27a as the sequence, how does the z-score read?
A: inactive: -3.37

Q: With CCCACUUGACUGAAAAGAUTT against Nmnat2 as the sequence, how does the z-score read?
A: inactive: -0.869

Q: With GGGCAGCUUUGAAACACUCTT against Clspn as the sequence, how does the z-score read?
A: inactive: -1.54

Q: For GCAUGCGUUUUUCCGGUAUTT against Prkcb1, which z-score is on record?
A: inactive: 0.219

Q: Which z-score does the source give for GGCACCUAAAUUCUUGAAUTT against Hspb6 here?
A: inactive: -0.361

Q: For GCGAAAUUCUAUCCAGCCATT against Trp53, which z-score is on record?
A: inactive: -1.47

Q: Which z-score does the source give for GGAGUGGUACACAGACAUGTT against Srd5a2 here?
A: inactive: -0.161

Q: With “GGAGAUUGAGCUGAAUAUUTT against 1700036D21Rik” as the sequence, how does the z-score read?
A: inactive: -2.05

Q: Which z-score does the source give for GCUAACCAUGUAAAAGCUATT against Pde3a here?
A: inactive: 1.99

Q: Which z-score does the source give for “GGACUUCAGCAAUUCCUGUTT against 4930555I21Rik” here?
A: inactive: 1.06

Q: For UGGAAGCCUUAUGCCGUCUTT against Gpr31c, which z-score is on record?
A: inactive: -0.334

Q: With GGUCAACAUCGAUGAGCUATT against Ppp1r14a as the sequence, how does the z-score read?
A: inactive: -0.707

Q: For GCGGACCAUCGAGAAGUUUTT against Eef1a2, which z-score is on record?
A: inactive: -1.46

Q: For GGAAGUCAUGAAGAACAGATT against Nup50, which z-score is on record?
A: inactive: 0.384

Q: With CCAUUAUGGACAAUAAGAGTT against Rnf8 as the sequence, how does the z-score read?
A: inactive: 0.373

Q: For GGAAACACCAAGAUUCCAGTT against Sprr3, which z-score is on record?
A: inactive: 0.226

Q: For GCAGGUACUAUGGUUAAGCTT against Dnd1, which z-score is on record?
A: inactive: 0.129

Q: With CGGAUCAUUUACCCUUAUGTT against Jarid1d as the sequence, how does the z-score read?
A: inactive: 0.0684

Q: With GGUCUUGACACUUCAAAGATT against S3-12 as the sequence, how does the z-score read?
A: inactive: -0.0911

Q: With GGCGAGAAGAUCCUUAUCCTT against Wdr3 as the sequence, how does the z-score read?
A: inactive: -0.564

Q: For CCUGAUCAACAAACCGGAUTT against Rfxank, which z-score is on record?
A: inactive: 0.649

Q: With GGACAUCACCAUGACAGACTT against Pnmt as the sequence, how does the z-score read?
A: inactive: -1.09

Q: For GGCCAAGCUGAUCAAUAUATT against Oprd1, which z-score is on record?
A: inactive: -0.0592

Q: Which z-score does the source give for GGCCAGAUCUUCUAAAUUCTT against Lect2 here?
A: inactive: 2.05

Q: For “GGACCAGACAGGAAGUAUUTT against 9130017C17Rik”, which z-score is on record?
A: inactive: -0.819

Q: With “GGAAGUCCUUGCAUUCCUCTT against D630005C06Rik” as the sequence, how does the z-score read?
A: inactive: 0.504

Q: For GCUACUAAGCACCUAGAGATT against Fxr2h, which z-score is on record?
A: inactive: -0.748

Q: Which z-score does the source give for GCGUGGACGAAUGGAAACATT against Mapk13 here?
A: inactive: -1.07

Q: With GGUGUUAUGCCUAUGUAUGTT against Hlxb9 as the sequence, how does the z-score read?
A: inactive: 0.248

Q: With GGCUACGAAACCAGAAGAUTT against Shd as the sequence, how does the z-score read?
A: inactive: 0.117

Q: Which z-score does the source give for GGAUAGGUGGCUGAUAGUGTT against Hsd3b4 here?
A: inactive: 0.0313

Q: With “GGAGACUCGGCUUCUUCAATT against A430041B07” as the sequence, how does the z-score read?
A: inactive: 1.07

Q: Which z-score does the source give for GGAGCUGGAGACUAAAGCUTT against Slc29a2 here?
A: inactive: 0.193

Q: With “CCAGUAUUCGCACAUCUCGTT against A030009A06Rik” as the sequence, how does the z-score read?
A: inactive: -0.6

Q: Which z-score does the source give for GGAGAGCGGGUCAUCACAUTT against Efna4 here?
A: inactive: 0.369

Q: Which z-score does the source give for “GCAAUACUUUGCAUGCAUUTT against 9530002B09Rik” here?
A: inactive: -0.945

Q: For AUCUCAGCGUAGAACGAAUTT against MGC5739, which z-score is on record?
A: inactive: 0.396

Q: For GGCAUGAAUCAGUCUAUGGTT against Olfr1308, which z-score is on record?
A: inactive: -1.48

Q: For GGUUAACAUUUUCAGUCAUTT against Itga2, which z-score is on record?
A: inactive: 1.17

Q: Which z-score does the source give for GGACGACUUUGAUUUCAACTT against Stat3 here?
A: inactive: 1.64

Q: Which z-score does the source give for CCUAGUCUAGCUGACUUGCTT against Spinlw1 here?
A: inactive: 2.43

Q: With CCACCAGACUCAUAUUAACTT against LOC433501 as the sequence, how does the z-score read?
A: inactive: -0.496

Q: With GCUUUUGCUACAAGUGUAUTT against C80879 as the sequence, how does the z-score read?
A: inactive: -2.32

Q: For GAGAAUCCUCACAUAAUCATT against Tnk1, which z-score is on record?
A: inactive: 1.3

Q: Which z-score does the source give for GCUUCCUGUUCGACGUAUCTT against Gdf7 here?
A: inactive: 0.583

Q: With “CGAACACAUAUAGAUCAUCTT against 4930417M19Rik” as the sequence, how does the z-score read?
A: inactive: -1.08

Q: For “GGAAAUGUGAAAGCUCUGUTT against B230396O12Rik”, which z-score is on record?
A: inactive: -1.37

Q: With GGUACACCUGGUAGAAUUGTT against Ppp1r16a as the sequence, how does the z-score read?
A: inactive: 0.914

Q: With “GGUCAUUCCGGGAUUUUUUTT against 5430411K16Rik” as the sequence, how does the z-score read?
A: inactive: -0.467

Q: For GGGAUGAGUAUGCUUAUGGTT against Rgpr, which z-score is on record?
A: inactive: 0.176

Q: For GGCUUCUUUUUGUUCUCUGTT against Apex2, which z-score is on record?
A: inactive: 1.05

Q: With GGUGGCCAAGGAAAAUGGUTT against Pcx as the sequence, how does the z-score read?
A: inactive: -1.02

Q: With CCUGCACUGGGAAAUAUGGTT against Polr2g as the sequence, how does the z-score read?
A: inactive: 0.0195

Q: With “GGUUCAAGGCAACACUGUGTT against 0710001P18Rik” as the sequence, how does the z-score read?
A: inactive: -0.172

Q: For GGAGGAUUGUCCACAUGGATT against Ccl27, which z-score is on record?
A: inactive: -1.06

Q: For GGUCAUCCUUUCUGAGUUGTT against Stard3, which z-score is on record?
A: inactive: 1.85

Q: For GGAUGGCUUUUUAAUGAAUTT against Chst5, which z-score is on record?
A: inactive: 0.703

Q: For GGCCGCGUGUAAAAAGGUUTT against Gsg2, which z-score is on record?
A: inactive: -0.0887

Q: With GCAUUUCGAGCUGAUGGUGTT against Slc36a1 as the sequence, how does the z-score read?
A: inactive: 0.803

Q: With GGAAUUUGUCAACCGGACCTT against Siat7f as the sequence, how does the z-score read?
A: inactive: 0.899

Q: With “GCACCUACACCGCUUACAUTT against 2610511E22Rik” as the sequence, how does the z-score read?
A: inactive: -0.628

Q: Which z-score does the source give for GGAAUACCAGGCCUUCCUUTT against Galgt1 here?
A: inactive: 0.447

Q: With “GGAAAAAUGAGGAAGAUGATT against 6430548M08Rik” as the sequence, how does the z-score read?
A: inactive: -0.308

Q: For “GGACAAGAAAAAGAAACGATT against 2610020O08Rik”, which z-score is on record?
A: inactive: -0.314

Q: With GGACGUGCUACAUUUGAAATT against BC066107 as the sequence, how does the z-score read?
A: inactive: -1.06

Q: With GGUGUCAUGGACGGAAGCUTT against Cryzl1 as the sequence, how does the z-score read?
A: inactive: -0.0922

Q: For CCAUUCAUGUGUGUUCAAUTT against Zfp472, which z-score is on record?
A: inactive: 0.418

Q: For “GGUCCCAGUCUAUGAAAACTT against A030010B05Rik”, which z-score is on record?
A: inactive: 1.2

Q: For GGUACCUCUACACAGAUGATT against Fgf21, which z-score is on record?
A: inactive: -0.674

Q: With CCCUUGGAGGAAGCUAACUTT against Pde2a as the sequence, how does the z-score read?
A: active: 1.27

Q: Which z-score does the source give for “GGCAAGAUUACUGUUGUAGTT against 1110007M04Rik” here?
A: inactive: 0.173

Q: For “CGGAGCAAAUUAGGCUCUUTT against 4930402H24Rik”, which z-score is on record?
A: inactive: 0.451

Q: With “GGGAAUUAGGGCUCAAUGATT against D330023I21Rik” as the sequence, how does the z-score read?
A: inactive: -1.13

Q: With CCCUAUUUGUGAGAAUGAATT against Gldc as the sequence, how does the z-score read?
A: inactive: 0.166

Q: For GCCACAAGAUUCAGACCCATT against Elac2, which z-score is on record?
A: inactive: -0.54

Q: With GGGCGUGAAUUCAGAGAUUTT against Pcdhgb5 as the sequence, how does the z-score read?
A: inactive: -0.457

Q: For “GGAUGAUCAUUUUGUUGCATT against 2700085E05Rik”, which z-score is on record?
A: inactive: 0.217

Q: For CCUCCAUGCUUGUUGUAGCTT against Olfr1031, which z-score is on record?
A: inactive: 0.95

Q: Which z-score does the source give for “GGAGGAUGUCUUACCAUGGTT against A830053O21Rik” here?
A: inactive: 2.03

Q: With “GGUUUCCAGAAGAAGGUUCTT against 1700009P03Rik” as the sequence, how does the z-score read?
A: inactive: 0.749

Q: With GGUGGAAAAUGGUUGGUUUTT against Mfap3 as the sequence, how does the z-score read?
A: inactive: 0.214

Q: Which z-score does the source give for GGCCUUUAACUUGUAAAUATT against Hlx1 here?
A: inactive: -0.0976

Q: With “GGAGCUUGCUGGAUUCAUATT against 6330407D12Rik” as the sequence, how does the z-score read?
A: inactive: 0.315

Q: With “GGUGUAUAGCUGUUGUGGGTT against 2010308M01Rik” as the sequence, how does the z-score read?
A: inactive: 0.0946

Q: Which z-score does the source give for GGGUUUUUUCAACCAGAAUTT against Hyal2 here?
A: inactive: 0.779

Q: With CCUGUGCACUGAAAGCACGTT against Mogat2 as the sequence, how does the z-score read?
A: inactive: 0.831

Q: Which z-score does the source give for GGCUCGGUUUCAGUGUACUTT against Zfp371 here?
A: inactive: 1.41

Q: Which z-score does the source give for “GCCAAUAAAGUCGGUGAAATT against E130307C13” here?
A: inactive: -1.08

Q: For GGCUAUCAUGUUACCUAGGTT against Olfr25, which z-score is on record?
A: inactive: 0.88

Q: Which z-score does the source give for GGUGAAGAGAGGUUUUUUUTT against Siat8b here?
A: inactive: 0.691

Source: PubChem BioAssay AID1347423 (Functional Genomics Laboratory (NCATS/FGL), 2020)
